Holding throughout (assay): log2 fold change, soluble protein after heating vs DMSO (PISA); higher = thermal stabilisation; K562 lysate, 10 uM; active = over 0.2 and 3.5 SD of the protein, either way, in both replicates (recomputed)
Compound in experiment [1]: NCC(=O)Nc1ccc(-n2nc(C(F)(F)F)cc2-c2ccc3c(ccc4ccccc43)c2)cc1
A digest of the protocol: (§1)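 The values are log-two fold changes in thermal stability compared with solvent controls and come from duplicates. They were obtained by TMTpro 16plex LC-MS/MS, with channel sums equalised, on the supernatant after 21,000xg for 90 min. That supernatant came from crude K562 extract at 1 mg/mL protein treated with 10 μM compound for 30 min, heated for 3 min across 48°C-58°C, pooled and brought to 0.5% NP-40 at 4°C.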

Chains of the proteins cited; added tags and fusions are not shown. Lines headed by an entry give the natural chain unless they say otherwise; changes in a name come on top.
UniProt Q9NXK8: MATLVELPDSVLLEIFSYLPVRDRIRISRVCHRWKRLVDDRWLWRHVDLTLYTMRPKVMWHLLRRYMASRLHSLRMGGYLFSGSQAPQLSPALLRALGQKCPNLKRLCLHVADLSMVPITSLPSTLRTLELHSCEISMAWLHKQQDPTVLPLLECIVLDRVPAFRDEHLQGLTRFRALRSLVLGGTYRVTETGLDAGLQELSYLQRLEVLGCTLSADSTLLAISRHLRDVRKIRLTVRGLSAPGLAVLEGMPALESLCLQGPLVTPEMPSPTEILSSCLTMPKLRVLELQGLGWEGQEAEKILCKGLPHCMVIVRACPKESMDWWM
UniProt P62942, whole entry, looked up: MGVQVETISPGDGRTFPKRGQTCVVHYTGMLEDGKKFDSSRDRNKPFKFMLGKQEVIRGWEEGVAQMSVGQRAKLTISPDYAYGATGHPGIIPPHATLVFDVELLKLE
UniProt Q6UN15: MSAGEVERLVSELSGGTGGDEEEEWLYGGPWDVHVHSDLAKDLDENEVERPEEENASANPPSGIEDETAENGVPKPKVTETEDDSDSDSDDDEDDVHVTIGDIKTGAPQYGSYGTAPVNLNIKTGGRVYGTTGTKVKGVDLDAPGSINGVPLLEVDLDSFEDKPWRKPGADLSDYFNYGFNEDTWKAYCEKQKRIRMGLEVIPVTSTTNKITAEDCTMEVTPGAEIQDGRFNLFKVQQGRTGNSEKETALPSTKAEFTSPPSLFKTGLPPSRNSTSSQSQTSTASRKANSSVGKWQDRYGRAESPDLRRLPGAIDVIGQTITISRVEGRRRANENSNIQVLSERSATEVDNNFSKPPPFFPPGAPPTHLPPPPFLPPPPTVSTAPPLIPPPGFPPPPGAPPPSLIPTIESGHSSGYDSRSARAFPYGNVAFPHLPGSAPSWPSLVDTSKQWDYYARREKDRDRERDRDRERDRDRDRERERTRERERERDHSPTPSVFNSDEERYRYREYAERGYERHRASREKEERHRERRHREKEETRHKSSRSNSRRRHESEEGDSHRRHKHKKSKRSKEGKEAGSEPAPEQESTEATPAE
UniProt Q8WVX9: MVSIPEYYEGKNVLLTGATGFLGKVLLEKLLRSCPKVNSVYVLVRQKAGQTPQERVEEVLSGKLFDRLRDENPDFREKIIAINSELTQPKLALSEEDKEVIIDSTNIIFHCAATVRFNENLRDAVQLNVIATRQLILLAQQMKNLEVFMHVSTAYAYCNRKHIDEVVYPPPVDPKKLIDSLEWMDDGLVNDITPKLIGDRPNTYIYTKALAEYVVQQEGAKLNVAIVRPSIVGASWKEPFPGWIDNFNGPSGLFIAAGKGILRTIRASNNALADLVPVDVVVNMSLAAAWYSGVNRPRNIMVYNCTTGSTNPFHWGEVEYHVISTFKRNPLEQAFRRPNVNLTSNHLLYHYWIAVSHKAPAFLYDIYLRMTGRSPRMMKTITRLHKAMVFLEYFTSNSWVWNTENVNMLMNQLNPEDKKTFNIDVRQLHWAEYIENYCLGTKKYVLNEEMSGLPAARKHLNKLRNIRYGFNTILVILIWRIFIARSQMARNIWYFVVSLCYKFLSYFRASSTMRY
UniProt Q9UKT5: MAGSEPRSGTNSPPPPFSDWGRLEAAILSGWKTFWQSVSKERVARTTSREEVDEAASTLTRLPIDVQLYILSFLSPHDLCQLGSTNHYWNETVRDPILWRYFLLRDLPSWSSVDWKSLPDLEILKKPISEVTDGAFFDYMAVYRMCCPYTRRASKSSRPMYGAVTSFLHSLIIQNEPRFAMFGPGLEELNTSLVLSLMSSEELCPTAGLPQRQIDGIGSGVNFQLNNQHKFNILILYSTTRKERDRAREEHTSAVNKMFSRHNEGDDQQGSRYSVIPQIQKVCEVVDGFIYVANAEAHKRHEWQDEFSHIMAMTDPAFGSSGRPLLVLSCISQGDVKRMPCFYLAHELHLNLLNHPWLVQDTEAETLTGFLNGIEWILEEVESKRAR
UniProt Q9NYY8: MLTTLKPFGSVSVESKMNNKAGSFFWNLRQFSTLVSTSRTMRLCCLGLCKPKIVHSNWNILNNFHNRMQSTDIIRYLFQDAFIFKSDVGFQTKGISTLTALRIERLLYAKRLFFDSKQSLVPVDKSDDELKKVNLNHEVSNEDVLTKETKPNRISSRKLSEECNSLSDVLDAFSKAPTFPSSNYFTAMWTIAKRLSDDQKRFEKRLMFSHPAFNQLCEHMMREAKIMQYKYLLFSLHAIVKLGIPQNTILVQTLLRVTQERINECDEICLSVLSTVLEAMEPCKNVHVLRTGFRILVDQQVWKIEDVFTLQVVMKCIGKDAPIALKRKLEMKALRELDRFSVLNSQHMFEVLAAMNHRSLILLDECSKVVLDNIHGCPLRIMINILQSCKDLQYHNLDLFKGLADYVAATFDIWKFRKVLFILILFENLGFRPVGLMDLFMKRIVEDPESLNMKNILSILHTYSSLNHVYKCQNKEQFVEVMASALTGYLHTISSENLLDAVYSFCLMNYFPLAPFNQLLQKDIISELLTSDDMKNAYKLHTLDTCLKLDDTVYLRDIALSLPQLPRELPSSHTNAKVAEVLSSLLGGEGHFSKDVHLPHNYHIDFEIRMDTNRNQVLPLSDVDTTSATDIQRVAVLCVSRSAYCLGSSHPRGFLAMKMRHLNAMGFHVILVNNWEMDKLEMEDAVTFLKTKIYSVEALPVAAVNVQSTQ
UniProt Q8NFG4: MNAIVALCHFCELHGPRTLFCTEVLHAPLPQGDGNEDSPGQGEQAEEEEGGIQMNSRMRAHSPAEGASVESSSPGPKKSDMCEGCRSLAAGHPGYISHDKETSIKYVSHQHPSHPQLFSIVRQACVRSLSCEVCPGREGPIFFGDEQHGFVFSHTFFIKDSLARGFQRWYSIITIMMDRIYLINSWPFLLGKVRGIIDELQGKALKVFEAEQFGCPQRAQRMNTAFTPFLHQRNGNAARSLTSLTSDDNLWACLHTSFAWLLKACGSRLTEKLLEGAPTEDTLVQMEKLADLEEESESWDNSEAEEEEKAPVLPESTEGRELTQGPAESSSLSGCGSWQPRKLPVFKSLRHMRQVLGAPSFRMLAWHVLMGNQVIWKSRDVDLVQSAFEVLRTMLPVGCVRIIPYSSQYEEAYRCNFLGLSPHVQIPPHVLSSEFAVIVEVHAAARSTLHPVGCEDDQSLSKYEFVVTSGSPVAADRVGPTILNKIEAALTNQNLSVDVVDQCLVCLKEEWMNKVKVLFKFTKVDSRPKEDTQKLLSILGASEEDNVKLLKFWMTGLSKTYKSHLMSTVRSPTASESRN
UniProt Q96IG2: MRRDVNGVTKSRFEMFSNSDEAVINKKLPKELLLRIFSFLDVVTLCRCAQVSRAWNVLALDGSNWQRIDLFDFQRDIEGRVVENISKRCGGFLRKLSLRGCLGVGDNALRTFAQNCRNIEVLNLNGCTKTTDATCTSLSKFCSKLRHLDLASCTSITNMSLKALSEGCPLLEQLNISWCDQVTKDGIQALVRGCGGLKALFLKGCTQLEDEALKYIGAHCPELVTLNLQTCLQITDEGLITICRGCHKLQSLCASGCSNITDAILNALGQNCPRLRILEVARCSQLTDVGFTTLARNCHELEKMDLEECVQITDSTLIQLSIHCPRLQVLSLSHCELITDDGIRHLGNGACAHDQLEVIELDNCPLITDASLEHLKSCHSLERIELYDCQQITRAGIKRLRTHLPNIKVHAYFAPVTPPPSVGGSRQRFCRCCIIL
UniProt P09038, whole entry, looked up: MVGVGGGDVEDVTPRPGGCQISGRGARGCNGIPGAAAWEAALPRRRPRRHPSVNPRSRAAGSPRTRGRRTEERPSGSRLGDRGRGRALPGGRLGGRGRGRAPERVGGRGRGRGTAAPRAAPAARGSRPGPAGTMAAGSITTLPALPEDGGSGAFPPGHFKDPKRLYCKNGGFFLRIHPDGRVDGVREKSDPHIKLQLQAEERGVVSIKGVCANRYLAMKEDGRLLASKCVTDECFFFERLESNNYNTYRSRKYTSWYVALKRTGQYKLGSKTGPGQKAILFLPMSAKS
UniProt Q9NSD9: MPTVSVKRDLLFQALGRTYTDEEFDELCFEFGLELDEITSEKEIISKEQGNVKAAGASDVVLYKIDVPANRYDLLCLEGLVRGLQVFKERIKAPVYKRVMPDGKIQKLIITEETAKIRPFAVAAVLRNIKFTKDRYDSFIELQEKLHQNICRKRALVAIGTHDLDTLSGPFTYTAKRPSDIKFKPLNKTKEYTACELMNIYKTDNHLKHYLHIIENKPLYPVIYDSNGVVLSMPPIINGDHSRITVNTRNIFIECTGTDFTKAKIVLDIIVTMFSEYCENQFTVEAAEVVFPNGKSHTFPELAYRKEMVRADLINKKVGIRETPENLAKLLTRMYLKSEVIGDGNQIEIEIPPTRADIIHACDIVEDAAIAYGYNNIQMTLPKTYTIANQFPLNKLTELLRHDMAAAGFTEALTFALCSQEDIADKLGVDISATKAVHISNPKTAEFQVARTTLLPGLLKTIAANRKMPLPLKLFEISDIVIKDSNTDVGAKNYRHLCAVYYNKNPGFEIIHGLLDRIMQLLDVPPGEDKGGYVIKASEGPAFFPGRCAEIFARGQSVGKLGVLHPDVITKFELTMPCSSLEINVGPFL
UniProt P37268: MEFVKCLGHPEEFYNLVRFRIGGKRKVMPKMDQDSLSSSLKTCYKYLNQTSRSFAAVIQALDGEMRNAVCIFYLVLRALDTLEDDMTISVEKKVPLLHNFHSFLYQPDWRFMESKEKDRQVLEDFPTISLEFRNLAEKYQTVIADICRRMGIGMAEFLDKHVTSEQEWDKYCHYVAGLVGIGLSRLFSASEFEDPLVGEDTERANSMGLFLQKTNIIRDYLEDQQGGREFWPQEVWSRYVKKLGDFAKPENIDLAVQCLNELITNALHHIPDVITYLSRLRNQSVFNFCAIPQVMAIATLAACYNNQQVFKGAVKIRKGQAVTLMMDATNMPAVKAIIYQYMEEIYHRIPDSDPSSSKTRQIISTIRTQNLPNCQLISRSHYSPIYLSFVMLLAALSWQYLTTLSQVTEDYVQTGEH
UniProt O14526: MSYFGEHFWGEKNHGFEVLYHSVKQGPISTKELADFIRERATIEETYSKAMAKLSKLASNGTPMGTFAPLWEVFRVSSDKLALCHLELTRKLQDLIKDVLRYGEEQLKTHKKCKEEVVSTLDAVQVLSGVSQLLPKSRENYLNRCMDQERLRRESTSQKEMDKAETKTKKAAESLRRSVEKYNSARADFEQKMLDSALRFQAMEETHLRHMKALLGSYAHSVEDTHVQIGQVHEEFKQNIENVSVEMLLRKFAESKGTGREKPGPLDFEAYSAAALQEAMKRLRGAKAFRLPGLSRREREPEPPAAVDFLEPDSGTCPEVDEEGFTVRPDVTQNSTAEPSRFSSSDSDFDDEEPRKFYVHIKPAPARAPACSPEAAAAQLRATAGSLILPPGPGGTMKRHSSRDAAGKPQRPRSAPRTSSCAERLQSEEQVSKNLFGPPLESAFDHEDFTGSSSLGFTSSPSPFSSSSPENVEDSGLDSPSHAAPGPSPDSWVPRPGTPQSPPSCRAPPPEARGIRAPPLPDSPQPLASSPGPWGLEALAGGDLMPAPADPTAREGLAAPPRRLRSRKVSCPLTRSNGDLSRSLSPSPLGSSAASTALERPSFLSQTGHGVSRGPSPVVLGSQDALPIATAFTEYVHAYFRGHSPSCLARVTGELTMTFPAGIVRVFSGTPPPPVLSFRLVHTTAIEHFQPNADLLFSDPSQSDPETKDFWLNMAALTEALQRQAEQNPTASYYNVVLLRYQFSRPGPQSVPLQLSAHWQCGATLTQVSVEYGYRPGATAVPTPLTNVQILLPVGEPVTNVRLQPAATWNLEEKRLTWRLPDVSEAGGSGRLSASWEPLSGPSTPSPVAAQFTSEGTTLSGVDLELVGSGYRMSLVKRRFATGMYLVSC
UniProt P23142: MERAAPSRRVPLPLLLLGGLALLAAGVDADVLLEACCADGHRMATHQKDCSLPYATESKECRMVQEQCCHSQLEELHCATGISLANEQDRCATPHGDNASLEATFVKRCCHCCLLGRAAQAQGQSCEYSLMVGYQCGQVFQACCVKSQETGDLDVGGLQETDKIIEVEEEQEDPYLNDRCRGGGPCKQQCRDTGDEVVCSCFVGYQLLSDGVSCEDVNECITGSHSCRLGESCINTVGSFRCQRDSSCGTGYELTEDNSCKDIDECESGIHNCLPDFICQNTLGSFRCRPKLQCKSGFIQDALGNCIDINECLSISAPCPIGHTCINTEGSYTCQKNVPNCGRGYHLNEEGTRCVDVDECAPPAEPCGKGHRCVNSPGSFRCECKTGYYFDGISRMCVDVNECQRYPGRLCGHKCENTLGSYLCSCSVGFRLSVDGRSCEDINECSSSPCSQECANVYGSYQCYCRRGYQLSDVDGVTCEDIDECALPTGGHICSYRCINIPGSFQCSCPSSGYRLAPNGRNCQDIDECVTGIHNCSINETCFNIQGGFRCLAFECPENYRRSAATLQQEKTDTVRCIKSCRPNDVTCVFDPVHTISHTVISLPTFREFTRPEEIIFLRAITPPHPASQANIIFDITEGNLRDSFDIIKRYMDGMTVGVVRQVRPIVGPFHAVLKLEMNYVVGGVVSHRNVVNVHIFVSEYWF

Compound in the next experiment: O=C(CCCCCCC(=O)Nc1ccccc1)NO [vorinostat]
In outline:
as §1

Compound in the next experiment: O=C(O)c1ccc2c(c1)nc(Nc1cccc(Cl)c1)c1ccncc12 [silmitasertib]
A digest of the protocol: as §1

Compound in experiment [2]: O=C1NC(=O)C(c2cnc3ccccn23)=C1c1cn2c3c(cc(F)cc13)CN(C(=O)N1CCCCC1)CC2
In outline:
as §1

Compound in another experiment: c1cn2cc(-c3ccc4cn[nH]c4c3)nc(Nc3ccc(N4CCOCC4)cc3)c2n1 [entospletinib]
In outline:
as §1

The record followed here is the supplement of paper PMC10849652.

This is one part of the list.

Take FBXL12 (UniProt Q9NXK8): the log2 fold change is inactive: -0.032 in experiment [1]; inactive: -0.145 with vorinostat; inactive: 0.005 in the experiment with silmitasertib; inactive: 0.022 in experiment [2]; inactive: -0.02 in the experiment with entospletinib.

Take FLAD1 (UniProt Q8NFF5): the log2 fold change in experiment [1] was inactive: -0.012; with vorinostat it was active: -0.397; in the experiment with silmitasertib, inactive: 0.102; in experiment [2] it was inactive: -0.005; in the experiment with entospletinib, inactive: 0.037.

For the target FKBP1A (UniProt P62942), the log2 fold change was inactive: -0.154 in experiment [1]; inactive: 0.036 in the experiment with vorinostat; inactive: -0.006 with silmitasertib; inactive: 0.068 in experiment [2]; inactive: 0.049 with entospletinib.

Take FIP1L1 (UniProt Q6UN15): the log2 fold change is inactive: 0.046 in experiment [1]; inactive: 0.049 with vorinostat; inactive: -0.079 with silmitasertib; inactive: -0.021 in experiment [2]; inactive: 0 with entospletinib.

Take FKBP2 (UniProt P26885): the log2 fold change was inactive: 0.014 in experiment [1]; inactive: 0.146 in the experiment with vorinostat; inactive: -0.027 with silmitasertib; inactive: 0.072 in experiment [2]; inactive: 0.013 with entospletinib.

For FAR1 (UniProt Q8WVX9), the log2 fold change in experiment [1] is inactive: -0.125; with vorinostat, inactive: -0.124; with silmitasertib, inactive: 0.055; in experiment [2], inactive: -0.03; with entospletinib it was inactive: 0.097.

On to FBXO4 (UniProt Q9UKT5), for which the log2 fold change in experiment [1] is inactive: -0.002; with vorinostat, inactive: -0.175; with silmitasertib it was inactive: -0.021; in experiment [2] it was inactive: -0.007; with entospletinib, inactive: -0.071.

Consider FASTKD2 (UniProt Q9NYY8), for which the log2 fold change in experiment [1] was inactive: 0.008; with vorinostat, active: -0.524; in the experiment with silmitasertib it was inactive: 0.044; in experiment [2] it was inactive: 0.025; with entospletinib, inactive: 0.013.

For FKRP (UniProt Q9H9S5), the log2 fold change was inactive: -0.008 in experiment [1]; inactive: 0.077 in the experiment with vorinostat; inactive: -0.019 with silmitasertib; inactive: -0.013 in experiment [2]; inactive: -0.034 with entospletinib.

As for FBXO3 (UniProt Q9UK99), the log2 fold change in experiment [1] was inactive: 0.005; in the experiment with vorinostat it was inactive: 0.089; in the experiment with silmitasertib, inactive: 0.078; in experiment [2], inactive: 0.061; in the experiment with entospletinib, inactive: -0.015.

For the target FBXO9 (UniProt Q9UK97), the log2 fold change in experiment [1] was inactive: -0.154; with vorinostat it was inactive: -0.135; with silmitasertib it was inactive: 0.009; in experiment [2], inactive: -0.046; with entospletinib it was inactive: -0.188.

Regarding FLNB isoform 8 (UniProt O75369), the log2 fold change in experiment [1] is inactive: 0.011; with vorinostat it was inactive: 0.019; in the experiment with silmitasertib, inactive: -0.017; in experiment [2], inactive: 0.004; in the experiment with entospletinib, inactive: 0.035.

On to FAM98A (UniProt Q8NCA5), for which the log2 fold change in experiment [1] is inactive: 0.027; with vorinostat, active: -0.558; with silmitasertib, inactive: 0.005; in experiment [2], inactive: 0.01; with entospletinib, inactive: 0.006.

Consider FAT2 (UniProt Q9NYQ8), for which the log2 fold change is inactive: 0.393 in experiment [1]; inactive: 0.001 with vorinostat; inactive: 0.098 in the experiment with silmitasertib; inactive: 0.178 in experiment [2]; inactive: 0.162 with entospletinib.

On to FANCD2 isoform 1 (UniProt Q9BXW9), for which the log2 fold change in experiment [1] is inactive: 0.078; in the experiment with vorinostat, active: -0.25; with silmitasertib it was inactive: -0.012; in experiment [2] it was inactive: 0.008; with entospletinib, inactive: -0.005.

As for FLCN (UniProt Q8NFG4), the log2 fold change in experiment [1] is inactive: 0.073; with vorinostat, inactive: -0.1; with silmitasertib it was inactive: 0.012; in experiment [2] it was inactive: 0.051; with entospletinib it was inactive: -0.019.

On to FBXL20 (UniProt Q96IG2), for which the log2 fold change in experiment [1] was inactive: -0.052; with vorinostat, inactive: -0.19; with silmitasertib it was inactive: -0.036; in experiment [2], inactive: 0.046; with entospletinib, inactive: -0.057.

Regarding FGF2 (UniProt P09038), the log2 fold change was inactive: 0.022 in experiment [1]; inactive: 0.097 with vorinostat; inactive: 0.043 in the experiment with silmitasertib; inactive: 0.044 in experiment [2]; inactive: -0.013 with entospletinib.

In the case of FARSB (UniProt Q9NSD9), the log2 fold change in experiment [1] is inactive: -0.01; with vorinostat it was inactive: 0.015; with silmitasertib, inactive: 0.013; in experiment [2] it was inactive: -0.013; in the experiment with entospletinib it was inactive: 0.011.

Regarding FNBP4 isoform 2 (UniProt Q8N3X1), the log2 fold change is inactive: -0.015 in experiment [1]; inactive: 0.034 with vorinostat; inactive: -0.003 in the experiment with silmitasertib; inactive: -0.021 in experiment [2]; inactive: -0.019 in the experiment with entospletinib.

On to FNTA (UniProt P49354), for which the log2 fold change in experiment [1] is inactive: -0.027; with vorinostat, inactive: 0.06; with silmitasertib, inactive: 0.027; in experiment [2] it was inactive: 0.027; in the experiment with entospletinib, inactive: -0.03.

Regarding FDFT1 (UniProt P37268), the log2 fold change in experiment [1] is inactive: -0.004; with vorinostat, inactive: -0.006; with silmitasertib, inactive: 0.041; in experiment [2], inactive: 0.004; with entospletinib it was inactive: 0.06.

With FCHO1 (UniProt O14526), the log2 fold change was inactive: 0.041 in experiment [1]; active: -0.286 in the experiment with vorinostat; inactive: 0.03 with silmitasertib; inactive: -0.006 in experiment [2]; inactive: 0.024 with entospletinib.

Regarding FBLN1 (UniProt P23142), the results for the log2 fold change in experiment [1] and in experiment [2] were inactive: -0.041 and inactive: -0.052, respectively.

FANCI (UniProt Q9NVI1): the log2 fold change in experiment [1] was inactive: 0.002; with vorinostat, active: -0.389; in the experiment with silmitasertib, inactive: 0.062; in experiment [2], inactive: 0.018; in the experiment with entospletinib it was inactive: 0.039.
